Reference: patent US20200390718A1, “METHODS AND COMPOSITIONS FOR […]-VIRAL TRANSFER VECTOR IMMUNE RESPONSE” (Selecta Biosciences, Inc., priority 2019, published 2020)
At least one compound was matched to its structure with a doubt left.

Assays:
Assay type in all cases: in vivo, C57BL/6 female mice
AAV8-SEAP = assay: Serum SEAP expression after AAV8-SEAP injections; conditions: FIGS. 2A-2B; injections d0, d56 and d140 or d147
Description: Three groups of C57BL/6 female mice (6 mice each) were injected (r.o.) on days 0 and 56 with 1×10^10 VG of AAV8-SEAP without any nanoparticles (one group) or with ImmTOR™ at 100 μg of rapamycin (synthetic nanocarriers comprising rapamycin, such as those produced in Example 1; two groups). Of the […] two groups, one group was left untreated and one was additionally treated with systemic dexamethasone (i.p., 200 μg in 100 μL per injection) on injection days 0 and 56.
At time indicated in FIGS. 1A and 1B (days 14, 35, 49, 63 and 71 or days 13, 19, 33, 48, 62 and 69), mice were bled, serum separated from whole blood, and stored at −20±5° C. until analysis. SEAP levels in serum were measured using an assay kit from ThermoFisher Scientific (Waltham, Mass., USA). Briefly, sera samples and positive controls were diluted in dilution buffer, incubated at 65° C. for 30 min, then cooled to room temperature, and plated into a 96-well format. Then, assay buffer (5 min) and substrate (20 min) were added and the plates were read on a luminometer (477 nm).
This has warranted a series of further studies in which four groups of C57BL/6 female mice (6 mice each) were injected (r.o.) on days 0, 56 and 140 or 147 with 1×10^10 VG of AAV8-SEAP without any nanoparticles (two groups) or with ImmTOR™ at 100 μg of rapamycin (synthetic nanocarriers comprising rapamycin; two groups). […]

AAV [1] = assay: ELISA of IgM antibodies to AAV in serum; conditions: collective summary, especially after repeated AAV administrations
AAV [2] = assay: ELISA of IgG antibodies to AAV in serum; conditions: Example 5; AAV8-SEAP d0, d56, d147

Question: With `C[C@@H]1C[C@H]2[C@@H]3CCC4=CC(=O)C=C[C@]4(C)[C@@]3(F)[C@@H](O)C[C@]2(C)[C@@]1(O)C(=O)CO` [dexamethasone, 9α-fluoro-11β,17α,21-trihydroxy-16α-methylpregna-1,4-diene-3,20-dione] as the molecule, how does the “SEAP expression vs. untreated groups (in words)” value (AAV8-SEAP) read?
Answer: improved SEAP expression, but it was smaller or equal to the ImmTOR™ alone group

Question: What about the “AAV IgM/IgG delay and suppression (summary in words)” value (AAV [1]) of the same molecule?
Answer: none of each

Question: What about the “AAV IgG suppression or delay (in words)” value (AAV [2]) of the same molecule?
Answer: no IgG suppression or delay
